AC50 data for 40 molecules are collected here from PubChem BioAssay AID445 (National Center for Advancing Translational Sciences (NCATS), 2006).

Some of the results follow. These are further read-outs of the screen, such as a control signal, another cell line or another target. No call is given for them. Most of these compounds were active or inconclusive in the main read-out, so they are no random draw. Words in brackets tell the shape of the fitted curve; partial curves, single points and poor fits give uncertain potencies.

A short description of this assay: IkB Signaling. The note with it: ABC-DLBCL IkBa-CBG/CBR dual luciferase ratio (green luciferase fused to IkBa over red control in OCI-Ly3 lymphoma cells), 4 h; measured here: control luc red channel unless noted. An outline of the steps: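 In this assay, an IκBα–CBG68 fusion accumulates when IKK-driven degradation is blocked; native CBR normalizes for cell number. OCI-Ly3 cells were treated 4 h with compound and doxycycline, then green and red light read after Chroma-Glo addition.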
For the molecule `Cc1ccc2nc(NC(=O)CNS(=O)(=O)c3ccc(Br)s3)sc2c1`, the half-maximal activity concentration (AC50) (commonly the concentration at which the activity in the assay is half-maximal) was 31.6 µM [falling, partial curve].

Take `Cc1oc(-c2cccc(Cl)c2)nc1CN1CCC(C(=O)NCCCN2CCN(c3cccc(Cl)c3)CC2)CC1`: the AC50 was 25.1 µM [falling, single point].

Take `COc1ccc(CCCc2nnc(SCC(=O)Nc3nccs3)n2C)cc1C`: the AC50 is 10 µM [falling, partial curve].

Consider `NC(=O)c1ccsc1NC(=O)CSc1ccccc1F`, for which the AC50 is 15.8 µM [falling, partial curve].

As to `CCCCNC(=O)c1[nH]c2ccccc2c1Sc1ccc(C)cc1`, the AC50 was 39.8 µM [falling, single point].

Regarding `Cc1ccc(C2c3[nH]c4ccccc4c3CCN2C(=O)Nc2ccc(C)c(C)c2)cc1` (stereo not given), the half-maximal activity concentration (AC50) is 7.94 µM [falling, partial curve].

As for `O=C(NCCc1ccc(Cl)cc1)c1ccc(CSCc2ccccc2Cl)o1`, the half-maximal activity concentration (AC50) is 25.1 µM [falling, single point].

Take `CC(=O)c1cccc(NC(=O)c2nc(-c3ccc(C)cc3)n3c2CCCCC3)c1`: the AC50 is 1 µM [rising, single point].

Regarding `Cc1ccc(NC(=O)C(=O)NCc2ccc(Cl)cc2)cc1`, the AC50 is 0.316 µM [falling, full curve].

With `CCc1ccc2nc(N3CCC(C(=O)O)CC3)sc2c1`, the AC50 is 0.794 µM [falling, partial curve].

Regarding `Cc1c(Cl)cccc1-n1c(CCC(=O)O)ccc1-c1cccs1`, the AC50 is 25.1 µM [falling, partial curve].

With `COc1ccc(Br)cc1CNC(=O)C(C)n1nc(C)n2c(cc3occc32)c1=O` (stereo not given), the AC50 was 25.1 µM [falling, single point].

`CCCCN(CCCC)S(=O)(=O)c1ccc(OC)c2ncccc12`: the AC50 is 10 µM [falling, partial curve].

For `CCc1cccc(NC(=O)CN2C(=O)CCc3cc(S(=O)(=O)N4CCOCC4)ccc32)c1`, the AC50 was 20 µM [falling, partial curve].

Consider `Cc1ccc(CN2CCSc3ccc(C(=O)Nc4ccc(F)cc4F)cc32)cc1`, for which the concentration at half-maximal activity (AC50) is 10 µM [falling, partial curve].

With `COc1cccc2c1C(=O)c1c(O)c3c(c(O)c1C2=O)C[C@@](O)(C(=O)CO)C[C@H]3O[C@H]1C[C@@H](N)[C@H](O)[C@@H](C)O1.[W]`, the AC50 is 2.51 µM [falling, partial curve].

As to `Cc1cc(=O)n(CC(=O)NCCC(C)C)c2c1c(C)nn2C`, the AC50 was 3.98 µM [rising, single point].

Turning to `Cc1sc2nc(CN(Cc3cccs3)C(=O)NC3CCCCC3)[nH]c(=O)c2c1C`, the AC50 is 39.8 µM [falling, single point].

As for `Cc1ccc(C)c(S(=O)(=O)c2cnc(SCC(=O)Nc3ccc(F)cc3F)[nH]c2=O)c1`, the AC50 was 39.8 µM [falling, partial curve].

With `CCN(CC)CCNC(=O)C1CCCN(c2ncnc3onc(C)c23)C1` (stereo not given), the AC50 was 1.26 µM [falling, full curve, poor fit].

With `Cc1ccc(C)c(-c2csc(-c3c(N)c(C(=O)c4ccc5c(c4)OCO5)n4ccccc34)n2)c1`, the AC50 is 0.631 µM [falling, full curve].

On to `Cc1cccc(NC(=O)Cn2c(=O)oc3cc(S(=O)(=O)NCc4ccccc4)ccc32)c1`, for which the AC50 was 20 µM [falling, partial curve].

For `Cc1ccc2nc(N(Cc3cccnc3)C(=O)C3CCCCC3)sc2c1`, the half-maximal activity concentration (AC50) was 3.16 µM [falling, partial curve].

Regarding `COc1ccc(NC(c2ccc(F)cc2)c2nnc(-c3ccccc3Cl)o2)cc1Cl` (stereo not given), the AC50 was 7.94 µM [falling, full curve, poor fit].

On to `O=C(c1ccco1)N1CCN(c2ncnc3c2[nH]c2ccc(Br)cc23)CC1`, for which the AC50 was 25.1 µM [falling, partial curve].

Consider `CCC12CN3CC(C)(CN(C1)C3c1c[nH]c3ccccc13)C2=O` (stereo not given), for which the AC50 was 39.8 µM [falling, single point].

`CCc1ccc(NC(=O)CSC2=Nc3ccccc3C3=NC(CCC(=O)NCCc4ccccc4)C(=O)N23)cc1` (stereo not given): the AC50 is 25.1 µM [falling, single point].

On to `O=C(Nc1ccc(F)cc1Cl)n1ncc2cc(Cl)ccc21`, for which the AC50 is 20 µM [falling, single point].

On to `CCC(=O)N1CCc2cc(S(=O)(=O)NC(CC(C)C)C(=O)Nc3cc(C)ccc3OC)ccc21` (stereo not given), for which the AC50 was 15.8 µM [falling, partial curve].

Consider `COc1ccccc1N(CC(=O)NCCSCc1ccccc1)S(C)(=O)=O`, for which the AC50 was 39.8 µM [falling, partial curve].

Regarding `CCCCc1nn2c(=O)cc(COC(=O)c3cccc(OC)c3)nc2s1`, the AC50 is 39.8 µM [falling, single point].

For the molecule `COc1ccccc1NC(=O)Cc1nn(C)c(=O)c2ccccc12`, the AC50 is 25.1 µM [falling, single point].

For the molecule `Cn1c2ccccc2c2c(C(=O)N3CCN(c4ccc(F)cc4)CC3)cn(C3CCCC3)c(=O)c21`, the concentration at half-maximal activity (AC50) was 10 µM [falling, partial curve].

As for `COc1ccc(-c2cc(C(F)(F)F)nc(SCC(=O)NCc3ccc(OC)c(OC)c3)n2)cc1`, the AC50 was 39.8 µM [rising, partial curve, poor fit].

`CSCCC(NC(=O)c1ccc(C)o1)C(=O)O` (stereo not given): the AC50 is 10 µM [falling, partial curve] [measured here: IkB-luc green channel].

On to `CCC(C)Oc1cccc(OCCCCN2C(=O)NC(C)(C)C2=O)c1` (stereo not given), for which the AC50 is 20 µM [falling, partial curve].

In the case of `O=C(NCc1ccco1)C(c1ccco1)N(CCc1ccccc1)C(=O)Cn1nnc2ccccc21` (stereo not given), the AC50 is 25.1 µM [falling, partial curve].

Regarding `CCCc1cc(-c2[nH]ncc2-c2ccc3c(c2)OCCCO3)c(O)cc1O`, the AC50 was 15.8 µM [falling, partial curve].

For the molecule `CCc1ccc(CNC(=O)c2ccc3c(c2)nc2n3CCC(C)C2)cc1` (stereo not given), the AC50 was 1.58 µM [falling, partial curve].

As to `COc1cccc(C(=O)Nc2cccc(OCc3cc(=O)n4cc(C)ccc4n3)c2)c1`, the AC50 is 0.631 µM [falling, full curve].
